This note sets out measurements from PMC7862700.

Chains of the proteins cited; added tags and fusions are not shown. Lines headed by an entry give the natural chain unless they say otherwise; changes in a name come on top.
UniProt O43186: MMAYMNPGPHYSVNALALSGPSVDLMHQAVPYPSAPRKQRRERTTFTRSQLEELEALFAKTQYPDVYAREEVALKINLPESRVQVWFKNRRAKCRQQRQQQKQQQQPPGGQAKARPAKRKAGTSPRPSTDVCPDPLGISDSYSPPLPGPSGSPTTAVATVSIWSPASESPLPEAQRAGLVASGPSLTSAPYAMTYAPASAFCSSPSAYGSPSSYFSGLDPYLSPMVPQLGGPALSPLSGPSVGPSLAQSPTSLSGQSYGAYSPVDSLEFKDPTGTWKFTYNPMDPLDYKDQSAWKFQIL

The entries are a selection whose mix differs from that of the whole data set. At the low end of the ranking the order means little.

For one assay, the target named is T1, FEV (UniProt Q99581).
T1 sequence: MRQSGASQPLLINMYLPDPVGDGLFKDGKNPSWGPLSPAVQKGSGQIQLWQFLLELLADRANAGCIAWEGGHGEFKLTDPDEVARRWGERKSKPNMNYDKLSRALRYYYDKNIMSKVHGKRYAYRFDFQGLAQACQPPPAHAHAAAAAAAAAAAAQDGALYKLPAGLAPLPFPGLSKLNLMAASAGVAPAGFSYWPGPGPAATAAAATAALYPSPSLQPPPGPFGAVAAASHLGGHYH
The assay is described as follows: DAPPL (digital affinity profiling via proximity ligation, sequencing). The note with it: 10 mM Tris-HCl pH 7.5, 50 mM NaCl, 1 mM DTT, 4% glycerol, room temperature, 30 min; GST-TFs on glutathione beads, 16-mer random dsDNA library, 0.1% …; high values mean tight binding; double strand, one strand shown; scale: fold enrichment (6-mer frequency, TF over GST control).
For TCAAGC, the binding signal was 0.995.
Still for that read-out and setting: with TTCGGG the figure was 0.865.
On the same count and under the same terms, then CTACTG, with 1.33; and GCTAGT, with 1.03.
On to TCGAAA, for which the binding signal is 0.906.
Same read-out and setting: with GGTTAA the figure was 0.836; with CGCTTG, 1.08; with CAGTTC, 0.957.
Same read-out and setting: then AATCGT, with 0.882.
As for GTGCAC, the binding signal was found to be 0.987.
Same read-out and setting: with CAATGC the figure was 1.16.
Same read-out and setting: with CATATG the figure was 0.993; with GACCCC, 0.904.
The same measure, in the same setting: then GTGTTG, with 0.892; and GATATG, with 1.08; and GAGCTC, with 0.88.
GTTCCC returned a binding signal of 1.27.
Same read-out and setting: with CCGTCA the figure was 1.19.
For AGGTGT, the binding signal was found to be 0.812.
Regarding CCATGG, the binding signal amounted to 0.931.
On the same count and under the same terms, with TTCGCT the figure was 1.2; with CGCAAA, 0.972.
On the same count and under the same terms, with TGGGGT the figure was 1.02; with TAAGTC, 0.834; with CGCGAA, 0.977.
For the sequence GATGGA, the binding signal came out at 0.849.
Turning to GCTTGT, the binding signal came to 1.02.
The same measure, in the same setting: then GCCAAC, with 0.946; and ATGGGA, with 0.87.
In turn, CCTAGG came in with a binding signal of 0.976.
For CAATAG, the binding signal turned out to be 0.995.
In turn, TAAGAC yielded a binding signal of 0.899.
On the same count and under the same terms, then AAGGCC, with 0.95.
On the same count and under the same terms, with ACAGAA the figure was 0.927; with CCGTTC, 1.48.
Consider TGTGCA, for which the binding signal came out at 1.1.
Same read-out and setting: then GCCATT, with 0.967.
Still for that read-out and setting: with ACAAGA the figure was 0.917.
TCCAGA displayed a binding signal of 0.85.
For GGCACC, the binding signal was 0.808.

The target of the next assay is CRX (UniProt O43186). The assay is described as above. Particulars: 10 mM Tris-HCl pH 7.5, 50 mM NaCl, 1 mM DTT, 4% glycerol, room temperature, 30 min; GST-TFs on glutathione beads, 16-mer random dsDNA library, 0.1% …; high values mean tight binding; double strand, one strand shown; scale: fold enrichment (6-mer frequency, TF over GST control).
For TCAAGC, the binding signal was 1.06.
Still for that read-out and setting: with TTCGGG the figure was 1.
Same read-out and setting: with CTACTG the figure was 1.08; with GCTAGT, 0.952; with TCGAAA, 1.16.
The same measure, in the same setting: with GGTTAA the figure was 1.31; with CGCTTG, 0.884; with CAGTTC, 0.682.
AATCGT came in with a binding signal of 1.15.
Same read-out and setting: with GTGCAC the figure was 0.615; with CAATGC, 0.926; with CATATG, 0.812.
On the same count and under the same terms, with GACCCC the figure was 0.663.
Sequence GTGTTG came in with a binding signal of 0.698.
On the same count and under the same terms, then GATATG, with 0.879.
Still for that read-out and setting: then GAGCTC, with 0.943; and GTTCCC, with 0.966.
Same read-out and setting: then CCGTCA, with 0.863.
The sequence AGGTGT yielded a binding signal of 0.763.
On the same count and under the same terms, with CCATGG the figure was 0.851; with TTCGCT, 1.13.
As to CGCAAA, the binding signal turned out to be 0.909.
The same measure, in the same setting: then TGGGGT, with 0.917; and TAAGTC, with 1.79; and CGCGAA, with 1.05.
GATGGA displayed a binding signal of 0.942.
On the same count and under the same terms, with GCTTGT the figure was 0.988; with GCCAAC, 0.664; with ATGGGA, 0.894.
Still for that read-out and setting: with CCTAGG the figure was 0.983; with CAATAG, 0.939.
In turn, TAAGAC had a binding signal of 1.72.
AAGGCC displayed a binding signal of 0.936.
Regarding ACAGAA, the binding signal worked out at 0.919.
The same measure, in the same setting: with CCGTTC the figure was 1.11; with TGTGCA, 0.83; with GCCATT, 0.875.
Same read-out and setting: with ACAAGA the figure was 0.935; with TCCAGA, 1.5; with GGCACC, 0.549.

The next assay addresses T2, ELF5 (UniProt Q9UKW6-2).
T2 sequence: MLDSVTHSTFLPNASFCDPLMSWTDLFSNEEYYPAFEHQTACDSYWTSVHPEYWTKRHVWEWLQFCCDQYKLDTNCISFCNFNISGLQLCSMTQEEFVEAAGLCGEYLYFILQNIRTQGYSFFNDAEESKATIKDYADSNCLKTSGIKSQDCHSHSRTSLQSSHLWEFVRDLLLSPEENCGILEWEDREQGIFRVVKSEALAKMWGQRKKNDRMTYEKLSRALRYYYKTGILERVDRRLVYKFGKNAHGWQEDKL
Described as above. The note with it: 10 mM Tris-HCl pH 7.5, 50 mM NaCl, 1 mM DTT, 4% glycerol, room temperature, 30 min; GST-TFs on glutathione beads, 16-mer random dsDNA library, 0.1% …; high values mean tight binding; double strand, one strand shown; scale: fold enrichment (6-mer frequency, TF over GST control).
Take TCAAGC: the binding signal was 0.93.
Still for that read-out and setting: with TTCGGG the figure was 0.885; with CTACTG, 1.32.
With GCTAGT, the binding signal is 0.962.
The same measure, in the same setting: then TCGAAA, with 0.822.
Take GGTTAA: the binding signal was found to be 0.932.
For CGCTTG, the binding signal was found to be 0.975.
CAGTTC showed a binding signal of 1.
Still for that read-out and setting: then AATCGT, with 0.936; and GTGCAC, with 0.934; and CAATGC, with 1.13.
Still for that read-out and setting: then CATATG, with 0.973; and GACCCC, with 0.849; and GTGTTG, with 0.924.
Same read-out and setting: then GATATG, with 1.14; and GAGCTC, with 0.838.
With GTTCCC, the binding signal was 1.48.
CCGTCA: the binding signal was 1.22.
Same read-out and setting: then AGGTGT, with 0.731.
Turning to CCATGG, the binding signal came out at 0.928.
Same read-out and setting: then TTCGCT, with 1.23; and CGCAAA, with 0.968.
The sequence TGGGGT came in with a binding signal of 1.01.
Still for that read-out and setting: then TAAGTC, with 0.836; and CGCGAA, with 0.927; and GATGGA, with 0.908.
The same measure, in the same setting: with GCTTGT the figure was 1.05.
Still for that read-out and setting: with GCCAAC the figure was 0.93; with ATGGGA, 0.873.
Regarding CCTAGG, the binding signal worked out at 0.937.
The same measure, in the same setting: then CAATAG, with 0.943; and TAAGAC, with 0.872; and AAGGCC, with 0.908.
The same measure, in the same setting: with ACAGAA the figure was 0.91.
Still for that read-out and setting: with CCGTTC the figure was 1.56; with TGTGCA, 0.999; with GCCATT, 0.94.
In turn, ACAAGA yielded a binding signal of 0.97.
Still for that read-out and setting: then TCCAGA, with 0.879.
Still for that read-out and setting: then GGCACC, with 0.786.
